Test results reported in PubChem BioAssay AID504648 (National Center for Advancing Translational Sciences (NCATS), 2011).
Screen size: about 390,000 compounds; about 610 (0.16%) were called active. Inconclusive results, whose numbers are uncertain, are shown with a selection of clear calls. Calls come from the whole dose curve; as a rule, active = well fitted inhibition curve with a large enough effect; inconclusive = small, poorly fitted or top-dose-only effect, or effect the other way, or another doubt; inactive = no such curve, though single readings can be large or run the other way. Potencies of inconclusive entries are doubtful fits and often do not repeat.
Potency is the fitted concentration of half-maximal effect.

Assay: Nrf2 qHTS screen for inhibitors: counterscreen for cytotoxicity
Details: A549 ARE-Fluc cells, CellTiter-Fluor viability, 18-24 h; series mostly up to 46 µM
In short: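 A549 ARE-Fluc cells in 5% FBS OPTI-MEM, 5000 cells/well, rested 2 h then exposed to compounds in concentration-response for 18-24 h at 37 °C. Viability by CellTiter-Fluor fluorescence (Ex 405/Em 525) after 30 min; luciferase luminescence (BugLite, 15 min, RT) read afterwards.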
With `COc1cccc(C2C(C#N)=C(C)NC3=C2C(=O)CC(C)(C)C3)c1` (stereo not given) the Potency was “inactive”. With `COc1ccc2[nH]c(=O)c(CN(Cc3cccnc3)Cc3nnnn3CC3CCCO3)cc2c1` (stereo not given) the Potency was “inactive”. For `COc1ccc2[nH]c3c(c2c1)CCN1C(=O)C(CC(=O)NCc2cccc(C(F)(F)F)c2)C[C@H](C(=O)N(C(C)C)C(C)C)[C@@]31C` (stereo not given in full), the Potency was inconclusive: 29.1 µM [falling, partial curve, poor fit]. For `Cc1cccc(NS(=O)(=O)c2ccc3nc(-c4ccccc4)[nH]c3c2)c1C`, the Potency was inconclusive: 18.4 µM [falling, single point]. For `Cc1cc(Nc2ccc(C)c(Cl)c2)nc(N2CCOCC2)n1`, the Potency was inconclusive: 9.2 µM [activator, partial curve, poor fit]. For `CC(C)(C)OC(=O)N[C@@H](Cc1ccccc1)c1nnc(S(=O)(=O)Cc2cccc(F)c2)o1`, the Potency was inconclusive: 20.6 µM [falling, partial curve, poor fit]. For `OCC1(Cc2ccc(Cl)cc2)CCN(CC2CC=CCC2)CC1` (stereo not given), the Potency was inconclusive: 20.6 µM [falling, partial curve, poor fit]. For `c1ccc(OCCOc2cccc3cccnc23)cc1`, the Potency was inconclusive: 9.2 µM [activator, partial curve, poor fit]. For `Cc1cc(C(=O)N/N=C/c2ccc(C)o2)c2ccccc2n1`, the Potency was inconclusive: 8.2 µM [falling, partial curve, poor fit]. For `Cn1nc(-c2ccc(N3CCOCC3)c(NS(=O)(=O)c3ccc(Cl)cc3)c2)c2ccccc2c1=O`, the Potency was inconclusive: 20.6 µM [falling, partial curve, poor fit]. In the case of `Cc1ccc(Cc2ccccc2C(=O)O)cc1`, the Potency was “inactive”. In the case of `COc1cc([N+](=O)[O-])c2ncccc2c1`, the Potency was “inactive”. For `COc1ccc(NC(=O)C(NC(=O)/C=C\c2ccc3c(c2)OCO3)c2ccccc2)cc1` (stereo not given), the Potency was inconclusive: 25.9 µM [falling, partial curve, poor fit]. For `COc1ccccc1OCC(=O)Nc1c(C(=O)c2ccc(F)cc2)oc2ccccc12`, the Potency was “inactive”. With `O=C(/C=C/c1ccccc1)C1=C(O)C(=O)N(CCO)C1c1ccccc1[N+](=O)[O-]` (stereo not given) the Potency was inconclusive: 29.1 µM [falling, partial curve, poor fit]. In the case of `O=C(CSc1c2c(nc3cc(Cl)ccc13)CCCC2)NCc1ccccc1Cl`, the Potency was inconclusive: 29.1 µM [falling, partial curve, poor fit]. In the case of `COc1cc(/C=C2/SC(=S)N(CC(=O)O)C2=O)ccc1OC(=O)c1ccco1`, the Potency was inconclusive: 25.9 µM [falling, single point]. For `COc1ccc(-c2cn(/N=C/c3ccc(Cl)cc3Cl)c(N)n2)cc1`, the Potency was inconclusive: 29.1 µM [falling, single point]. For `COc1cc(/C=C/C(=O)OCC(=O)c2ccc(OC(F)F)cc2)ccc1O`, the Potency was “inactive”. With `COCCCn1c(=N)c(C(=O)NCC2CCCO2)cc2c(=O)n3ccccc3nc21` (stereo not given) the Potency was inconclusive: 18.4 µM [activator, partial curve]. In the case of `O=C1c2ccccc2-c2onc3c(NCCO)cc(NC4CCCCC4)c1c23`, the Potency was inconclusive: 11.6 µM [falling, partial curve]. In the case of `COc1ccc(/C=N/Nc2cc(C)nc3ccc(Br)cc23)cc1`, the Potency was inconclusive: 23.1 µM [falling, single point]. With `Cc1ccc(OCCn2cc(C=O)c3ccccc32)cc1` the Potency was “inactive”. For `Cc1ccc(C2=NN(C(=O)CCl)C(c3ccco3)C2)o1` (stereo not given), the Potency was “inactive”. With `COc1ccc(-c2nn(-c3ccccc3)cc2/C=N/N2C(=O)CSC2=S)cc1` the Potency was inconclusive: 13 µM [falling, partial curve, poor fit]. For `O=C(CN1C(=O)c2ccccc2C1=O)NCC(=O)Nc1ccccc1`, the Potency was “inactive”. In the case of `Cc1ccccc1Oc1cc(NC(=O)CCCn2nc(C)c([N+](=O)[O-])c2C)cc([N+](=O)[O-])c1`, the Potency was “inactive”. In the case of `FC(F)C(F)(F)C(F)(F)C(F)(F)c1cc(-c2ccccc2)n[nH]1`, the Potency was inconclusive: 18.4 µM [falling, single point]. In the case of `Cc1cc(C)c2sc(N(CCCN(C)C)C(=O)COc3ccc(Cl)cc3)nc2c1`, the Potency was inconclusive: 29.1 µM [falling, partial curve, poor fit]. With `COc1cccc(CNC(=S)Nc2cc(C)ccc2C)c1` the Potency was “inactive”. In the case of `O/N=C(/c1ccccc1)c1cc2cc(Br)cc(Br)c2o1`, the Potency was inconclusive: 29.1 µM [falling, single point]. With `Cc1cc(C)cc(C(=O)N(NC(=O)Nc2ccc(Cl)cc2)C(C)(C)C)c1` the Potency was inconclusive: 29.1 µM [falling, single point]. With `Cc1ccc(Cl)cc1NC(=O)CN1C(=O)C(C)(C)c2cc(S(=O)(=O)N3CCCCC3)ccc21` the Potency was inconclusive: 14.6 µM [falling, partial curve, poor fit]. For `CC1CCN(C2=C(NS(=O)(=O)c3ccccc3)C(=O)c3ccccc3C2=O)CC1`, the Potency was “inactive”. In the case of `COc1ccc(Br)cc1CNc1ccccc1`, the Potency was inconclusive: 29.1 µM [activator, single point]. With `O=C(O)c1ccc(NC2=C/C(=N/S(=O)(=O)c3ccccc3)c3ccccc3C2=O)cc1` the Potency was “inactive”. In the case of `C/C(=N\NC(=O)CSCc1ccc([N+](=O)[O-])cc1)c1ccccc1O`, the Potency was “inactive”. For `Cc1cccc(Cc2c(C)nc3nc(SCC(=O)NCc4ccco4)nn3c2C)c1`, the Potency was “inactive”. In the case of `Cc1ccc(/C=C2\Sc3ccccc3C2=O)s1`, the Potency was “inactive”. In the case of `CN(C)c1ccc(/C=C(/NC(=O)c2ccccc2)C(=O)N2CCCC2)cc1`, the Potency was “inactive”. With `CN(CC(=O)Nc1ccc(Cl)c(C(F)(F)F)c1)C(=O)c1cccnc1Sc1ccccc1` the Potency was inconclusive: 29.1 µM [falling, single point]. With `CN(C)/C=C/C(=O)c1ccc(Oc2ccccc2)cc1` the Potency was “inactive”. In the case of `O=C1OC(Nc2nc(-c3ccc(F)cc3)cs2)c2ccccc21` (stereo not given), the Potency was inconclusive: 25.9 µM [falling, partial curve, poor fit]. For `CN1N=C(C(=O)N=c2sc3ccccc3n2C)CCC1=O`, the Potency was “inactive”. For `O=C1/C(=C/c2c[nH]c3ccccc23)CCC/C1=C\c1c[nH]c2ccccc12`, the Potency was inconclusive: 32.6 µM [falling, single point].
